Results are given in words; binding and its absence hold for the method and conditions named.
Columns and labels:
[1] = target: Utrophin N-terminal spectrin repeat 1 (rat) (UniProt G3V7L1); assay: SEC; Superdex 75 HR 30/10; Utr-SR1 in 20 mM Tris pH 8.0, 50 mM NaCl; Dys-SR1 in PBS; no DTT added; both purified
[2] = target: Utrophin N-terminal spectrin repeat 1 (rat) (UniProt G3V7L1); assay: crystal structure; X-ray; Utr-SR1 P2(1)2(1)2(1), 1.95 Å, two molecules in the asymmetric unit; Dys-SR1 P3(2)21, 2.3 Å, two molecules in the asymmetric unit, crystallised without reducing agent; both purified
[3] = target: Dystrophin N-terminal (repeat 1) spectrin repeat (human) (UniProt P11532); assay: SEC; analytical size exclusion chromatography of Dys-SR1 after reduction with 5 mM DTT; both purified

binding [1]	binding [2]	binding [3]	Binder
no binding	no binding		Utrophin N-terminal spectrin repeat 1 (domain or fragment, UniProt G3V7L1 308-425) DMDLDSYQIALEEVLTWLLSAEDTFQEQDDISDDVEDVKEQFATHETFMMELTAHQSSVGSVLQAGNQLMTQGTLSDEEEFEIQEQMTLLNARWEALRVESMERQSRLHDALMELQKK
		no binding (condition: with 5 mM DTT)	Dystrophin N-terminal (repeat 1) spectrin repeat (domain or fragment, human, UniProt P11532 338-456, looked up, dystrophin, human, residues 338-456 (first spectrin repeat); Without a reducing agent part of the protein is a dimer linked by a disulphide bond between C433 of each molecule; The model in PDB 3UUN holds residues 338-453 (monomer A) and 339-452 (monomer B); Tag and cleavage are told only as 'prepared in an equivalent manner' to Utr-SR1; also called Dys-SR1; source: E. coli BL21(DE3), purified in …) EVNLDRYQTALEEVLSWLLSAEDTLQAQGEISNDVEVVKDQFHTHEGYMMDLTAHQGRVGNILQLGSKLIGTGKLSEDEETEVQEQMNLLNSRWECLRVASMEKQSNLHRVLMDLQNQK

From publication PMC3401230, “The Crystal Structures of Dystrophin and Utrophin Spectrin Repeats: Implications for Domain Boundaries” (PLoS ONE, 2012)
